We go through two molecules from paper PMC11836120, “A small signaling domain controls PPIP5K phosphatase activity in phosphate homeostasis” (Nature Communications, 2025).

These are yes or no findings as the source states them, for the method shown.

In assay [1] the target is S. cerevisiae Vip1 loop-truncated phosphatase domain (ScVip1^(PD Δ848-918), residues 536-1107, loop replaced by a Gly-Ser-Ser-Gly linker) (Saccharomyces cerevisiae) (UniProt Q06685). As to the kind of experiment: crystal structure; apo ScVip1^(PD Δ848-918) crystals, 3.4 Å; protein in 20 mM Hepes pH 7.5, 150 mM NaCl, 0.5 mM zinc acetate; crystal packing between adjacent GAF domains; both purified.

Assay [2] concerns the target S. cerevisiae Vip1 phosphatase domain (ScVip1^PD, residues 536-1107) (Saccharomyces cerevisiae) (UniProt Q06685). Put plainly: SEC; analytical size-exclusion chromatography, Superdex 200 Increase 10/300 GL, 20 mM Hepes pH 7.5, 150 mM NaCl, 0.75 ml/min; both purified.

B1: S. cerevisiae Vip1 loop-truncated phosphatase domain (ScVip1^(PD Δ848-918), residues 536-1107, loop replaced by a Gly-Ser-Ser-Gly linker) (domain or fragment, UniProt Q06685 536-847; Q06685 919-1107)
chain: KWVFKGLAIIIRHADRTPKQKFKHSFTSPIFISLLKGHKEEVVIRNVNDLKIVLQALRIALDEKAGNPAKIKVLANALEKKLNFPGTKIQLKPVLNKENEVEKVQFILKWGGEPTHSAKYQATELGEQMRQDFDLLNKSILQNIKIFSSSERRVLHTAQYWTRALFGADELGSDEISIRKDLLDDSNAAKDLMDKVKKKLKPLLREGKEAPPQFAWPSKMPEPYLVIKRVVELMNYHKKIMDNNFAKKDVNSMQTRWCTSEDPSLFKERWDKLFKEFNNAEKVDPSKISELYDTMKYDALHNRQFLENIFDPGSSGQFDEPRFMQLRELYKLAKVLFDFICPKEYGISDAEKLDIGLLTSLPLAKQILNDIGDMKNRETPACVAYFTKESHIYTLLNIIYESGIPMRIARNALPELDYLSQITFELYESTDASGQKSHSIRLKMSPGCHTQDPLDVQLDDRHYISCIPKISLTKHLDMDYVQQKLRNKFTRVIMPPKFTPVNITS
In the case of B1, the binding result in assay [1] is listed as “no binding”.

B2: S. cerevisiae Vip1 phosphatase domain (ScVip1^PD, residues 536-1107) (domain or fragment, UniProt Q06685 536-1107)
chain: KWVFKGLAIIIRHADRTPKQKFKHSFTSPIFISLLKGHKEEVVIRNVNDLKIVLQALRIALDEKAGNPAKIKVLANALEKKLNFPGTKIQLKPVLNKENEVEKVQFILKWGGEPTHSAKYQATELGEQMRQDFDLLNKSILQNIKIFSSSERRVLHTAQYWTRALFGADELGSDEISIRKDLLDDSNAAKDLMDKVKKKLKPLLREGKEAPPQFAWPSKMPEPYLVIKRVVELMNYHKKIMDNNFAKKDVNSMQTRWCTSEDPSLFKERWDKLFKEFNNAEKVDPSKISELYDTMKYDALHNRQFLENIFDPGLPNEAIADELGSHSLVDRYPINVLAKNNFKIIDSHSMNNSGKNSSNSVGSLGWVLESGKTSTARNPKSSSQFDEPRFMQLRELYKLAKVLFDFICPKEYGISDAEKLDIGLLTSLPLAKQILNDIGDMKNRETPACVAYFTKESHIYTLLNIIYESGIPMRIARNALPELDYLSQITFELYESTDASGQKSHSIRLKMSPGCHTQDPLDVQLDDRHYISCIPKISLTKHLDMDYVQQKLRNKFTRVIMPPKFTPVNITS
Turning to B2, the binding entry in assay [2] is on record as “no binding”.
